# In all, about 320,000 compounds went through this assay and about 22,000 (6.9%) were called active. The inconclusive results got no clear call from the source; some entries with a clear call stand among them for comparison. Calls come from the whole dose curve; as a rule, active = well fitted inhibition curve with a large enough effect; inconclusive = small, poorly fitted or top-dose-only effect, or another doubt; inactive = no such curve, though single readings can be large or run the other way. Potencies beside an inconclusive call are fits to weak or partial responses and may not hold up.
# Assay: Primary qHTS for delayed death inhibitors of the malarial parasite plastid, 96 hour incubation
# Conditions: P. falciparum luciferase reporter growth; series mostly up to 28.7 µM; activity change, negative = inhibition: at the top concentration
# Method in brief: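 Readout is luminescence from an integrated firefly luciferase in P. falciparum. Red cells, 2% hematocrit and 0.05% parasitemia final, were cultured with compound through two parasite generations (96 hours) at 37 C, 5% CO2.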
# % is set by controls: 0 for no effect and ±100 for the full control effect; potency is the fitted concentration of half-maximal effect.
SMILES,Potency,"activity change, negative = inhibition"
CSCCC(NC(=O)COc1ccccc1)C(=O)N1CCN(c2ccccc2Cl)CC1 (centres undefined),"inconclusive: 18.5 µM [inhibitor, single point]",–
CCOc1ccc(C(=O)OC(C)CN2CCCCC2)cc1 (centres undefined),"inconclusive: 6.57 µM [inhibitor, partial curve, poor fit]",–
Cc1ccccc1NC(=O)Cc1nc(COC(=O)CCC(=O)c2ccccc2)cs1,"inconclusive: 1.31 µM [inhibitor, partial curve, poor fit]",–
CCCNC(=O)c1cn(CC)c2cc(N3CCN(C(=O)c4ccco4)CC3)c(F)cc2c1=O,active: 3.29 µM,–
CC(=O)Nc1c(C)ccc(CNC(=O)COc2cc(C)ccc2C)c1C,–,inactive: -16.9%
COc1cc(/C=C/c2nc3ccccc3c(=O)n2-c2ccccc2O)ccc1O,active: 9.28 µM,–
CC(=O)Nc1ccc(C(=O)COC(=O)c2c(C)noc2C)c(F)c1,"inconclusive: 18.5 µM [inhibitor, single point]",–
Cc1ccc(C)c(S(=O)(=O)N2CCN(C(=O)c3ccc(C)s3)CC2)c1,"inconclusive: 13.1 µM [inhibitor, partial curve, poor fit]",–
CCOC(=O)c1c(NC(=O)CN(C)C)sc(C(=O)N(CC)CC)c1C,"inconclusive: 18.5 µM [inhibitor, single point]",–
O=C(O)CCCNc1cc(N2CCN(C(=O)c3ccco3)CC2)c2noc3c2c1C(=O)c1ccccc1-3,"inconclusive: 2.94 µM [inhibitor, partial curve, poor fit]",–
O=C(NCc1ccc2c(c1)OCO2)Oc1ccccc1,"inconclusive: 18.5 µM [inhibitor, single point]",–
CCOC(=O)c1cc(C#N)c(N2CCCNCC2)nc1C(F)(F)F,"inconclusive: 18.5 µM [inhibitor, single point]",–
CCOc1ccccc1C(=O)N1CCN(C(c2ccccc2)c2ccccc2)CC1,"inconclusive: 1.31 µM [inhibitor, partial curve, poor fit]",–
Cc1ccc(C(=O)Nc2cc(Cl)ccc2N2CCCCC2)s1,"inconclusive: 13.1 µM [inhibitor, single point]",–
COc1cc(Cl)ccc1OCc1cc(C(=O)NCCCN2CCCC2=O)no1,"inconclusive: 11.7 µM [inhibitor, single point]",–
Clc1ccccc1Cn1c(/C=C/c2ccco2)nc2ccccc21,"inconclusive: 14.7 µM [inhibitor, single point]",–
CCCCc1cc(=O)oc2cc(OCC(=O)N3CCOCC3)ccc12,–,inactive: 44.9%
O=c1c(O)cccc2cc(O)c(O)c(O)c12,"inconclusive: 11.7 µM [inhibitor, single point]",–
O=C(Nc1ccccc1)C1=C(c2ccccc2)S(=O)(=O)CCS1(=O)=O,"inconclusive: 1.85 µM [inhibitor, partial curve, poor fit]",–
CC1CCN(CC(=O)Nc2nn(-c3ccccc3)nc2C(N)=O)CC1,–,inactive: 35.7%
CCOC(=O)N1CCN(C(=O)C2c3cc(OC)c(OC)cc3C(=O)N3CCc4ccccc4C23)CC1 (centres undefined),–,inactive: -23.9%
C/C(CC(=O)Nc1cc(C)ccn1)=N\NC(=O)C(=O)Nc1cccc(C)c1,active: 1.47 µM,–

SMILES,Potency,"activity change, negative = inhibition"
COc1ccc(-c2cc(C(F)(F)F)nc(SCCC(=O)N3CCOCC3)n2)cc1,"inconclusive: 18.5 µM [inhibitor, partial curve, poor fit]",–
Cc1ccc(-n2c(O)c(C=NC3CCS(=O)(=O)C3)c3ccccc3c2=O)c(C)c1 (centres undefined),"inconclusive: 13.1 µM [inhibitor, single point]",–
O=C(NCC1CCCO1)C(=O)N/N=C/c1ccccc1C(=O)O (centres undefined),active: 10.4 µM,–
CCOC(=O)c1sc(NC(=O)c2cc(-c3ccccc3C)nc3ccccc23)c(C#N)c1C,"inconclusive: 1.47 µM [inhibitor, full curve, poor fit]",–
O=C(Cc1ccc(-n2cccc2)cc1)N1CCc2ccccc21,"inconclusive: 18.5 µM [inhibitor, single point]",–
Cc1cc(C2N=C(N)Nc3nc4ccccc4n32)c(C)n1-c1ccccc1Cl (centres undefined),–,inactive: -11.7%
COc1ccc(-n2c(Cc3cc(=O)[nH]c(=O)[nH]3)nnc2SCC(=O)N2CCCC2)cc1,"inconclusive: 18.5 µM [inhibitor, single point]",–
CCn1c(CN2CCOCC2)nnc1SCC(=O)Nc1ccccc1Cl,–,inactive: 14.3%
COc1ccc(N2C(=O)CC(N3CC=C(c4ccccc4)CC3)C2=O)cc1 (centres undefined),"inconclusive: 14.7 µM [inhibitor, single point]",–
CC(=O)NC(c1cccs1)c1cc(Br)c2cccnc2c1O (centres undefined),"inconclusive: 11.7 µM [inhibitor, partial curve, poor fit]",–
N#CCC(=O)Nc1ccc(C(=O)OCC(=O)N(C2CCCCC2)C2CCCCC2)cc1,"inconclusive: 6.57 µM [inhibitor, partial curve, poor fit]",–
Cc1ccc(-c2nnc(Nc3ccccc3)c3ccccc23)cc1S(=O)(=O)NCC1CCCO1 (centres undefined),"inconclusive: 1.17 µM [inhibitor, partial curve, poor fit]",–
CN1C(=O)C(N=Nc2ccccc2C(=O)O)N(C)C1=S (centres undefined),"inconclusive: 11.7 µM [inhibitor, partial curve]",–
CSCCC(NC(=O)c1ccccc1Cl)C(=O)N1CCC1 (centres undefined),–,inactive: 6.09%
COc1cc(OC)c2c(=O)cc(-c3cccnc3)oc2c1,–,inactive: 1.71%
COc1ccccc1CN1CC(C(=O)NCCC2=CCCCC2)CCC1=O (centres undefined),"inconclusive: 18.5 µM [inhibitor, single point]",–
Cn1cccc1-c1cc(C(=O)O)[nH]n1,"inconclusive: 0.0037 µM [inhibitor, full curve, poor fit]",–
O=C(OCC#CCSc1nnc(-c2cccc3ccccc23)o1)c1ccco1,inactive,–
CCCC(=O)Nc1ccc(C(=O)N/N=C/c2ccc([N+](=O)[O-])o2)cc1,active: 1.65 µM,–
C/C(=N\NC(=O)c1cc(Cl)ccc1O)c1ccc(Br)s1,–,inactive: 86.6%
CC(C)N(Cc1ccccc1)C(=O)COC(=O)c1ccccc1SCC(=O)N1CCCC1,–,inactive: -14.6%
CC(NC(=O)OC(C)(C)C)C(=O)Oc1cc2oc(=O)cc(-c3ccccc3)c2cc1Cl (centres undefined),–,inactive: 18.9%

# Entries of single compounds as entered above:
# CCOC(=O)c1sc(NC(=O)c2cc(-c3ccccc3C)nc3ccccc23)c(C#N)c1C in the list: Potency: inconclusive: 1.47 µM [inhibitor, full curve, poor fit]
# COc1ccc(-n2c(Cc3cc(=O)[nH]c(=O)[nH]3)nnc2SCC(=O)N2CCCC2)cc1 in the list: Potency: inconclusive: 18.5 µM [inhibitor, single point]
# COc1ccccc1CN1CC(C(=O)NCCC2=CCCCC2)CCC1=O (centres undefined) in the list: Potency: inconclusive: 18.5 µM [inhibitor, single point]
